Measurements as given in patent US20050222147A1, “Process for the preparation of morpholine derivatives and intermediates therefore” (priority 2000, published 2005).
Some of these results come from one statement about several compounds together.

What follows are molecules tested against T1, CCR-3 (Homo sapiens, UniProt P51677) (assay: CCR-3 competition binding SPA (scintillation proximity assay)). Details: inhibition of [125I] eotaxin binding to membranes from K562 cells stably expressing CCR-3.
T1 construct: expressed in transfected cells
T1 sequence (P51677 1-355): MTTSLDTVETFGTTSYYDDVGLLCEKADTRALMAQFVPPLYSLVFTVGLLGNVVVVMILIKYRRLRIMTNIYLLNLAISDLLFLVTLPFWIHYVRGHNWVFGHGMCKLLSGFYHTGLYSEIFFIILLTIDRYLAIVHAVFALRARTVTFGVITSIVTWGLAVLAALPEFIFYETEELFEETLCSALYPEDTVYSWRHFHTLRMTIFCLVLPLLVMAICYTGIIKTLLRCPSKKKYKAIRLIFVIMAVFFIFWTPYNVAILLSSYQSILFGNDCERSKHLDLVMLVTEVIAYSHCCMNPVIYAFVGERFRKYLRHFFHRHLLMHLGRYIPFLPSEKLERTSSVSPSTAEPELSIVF
Protocol: A CCR-3 competition binding SPA (scintillation proximity assay) was used to assess the affinity of novel compounds for CCR-3. Membranes prepared from K562 cells stably expressing CCR-3 (2.51 μg/well) were mixed with 0.25 mg/well wheat-germ agglutinin SPA beads (Amersham) and incubated in binding buffer (HEPES 50 mM, CaCl2 1 mM, MgCl2 5 mM, 0.5% BSA) at 4° C. for 1.5 hr. Following incubation, 20 pM of [^125I) eotaxin (Amersham) and increasing concentrations of compound (1 pM to 30 μM) were added and incubated in a 96 well plate for 2 hr at 22° C. then counted on a Microbeta plate counter. The total assay volume was 100 μl. Competition binding data were analysed by fitting the data with a four parameter logistic equation. Data are presented as the mean pIC50 values (negative logarithm of the concentration of compound which inhibits [^125I] eotaxin binding by 50%) from at least two experiments.
In the case of `CC(=O)c1csc2cccc(CC(=O)NCC3CN(Cc4ccc(Cl)c(Cl)c4)CCO3)c12.O=C(O)C(F)(F)F` (centres unmarked) [Example 59, 2-(3-acetyl-1-benzothien-4-yl)-N-{[4-(3,4-dichlorobenzyl)morpholin-2-yl]methyl}acetamide trifluoroacetate], the “pIC50 value in CCR-3 binding assay (assay (a))” value (shortened to “pIC50 value”) is reported as “greater than 5.0”. In the case of `O=C(Cc1cncc(Br)c1)NCC1CN(Cc2ccc(Cl)c(Cl)c2)CCO1.O=CO` (centres unmarked) [Example 60, 2-(5-bromopyridin-3-yl)-N-{[4-(3,4-dichlorobenzyl)morpholin-2-yl]methyl}acetamide compound with formic acid (1:1)], the “pIC50 value” value is reported as “greater than 5.0”. For `Cc1nc2ccc(CC(=O)NCC3CN(Cc4ccc(Cl)c(Cl)c4)CCO3)cc2nc1C` (centres unmarked) [Example 61, N-{[4-(3,4-dichlorobenzyl)morpholin-2-yl]methyl}-2-(2,3-dimethylquinoxalin-6-yl)acetamide], the “pIC50 value” value was “greater than 5.0”. `CC(=O)c1ccc(CC(=O)NCC2CN(Cc3ccc(Cl)c(Cl)c3)CCO2)cc1.O=C(O)C(F)(F)F` (centres unmarked) [Example 62, 2-(4-acetylphenyl)-N-{[4-(3,4-dichlorobenzyl)morpholin-2-yl]methyl}acetamide trifluoroacetate] was tested, and the “pIC50 value” value was “greater than 5.0”. With `CC(=O)c1ccc(CC(=O)NCC2CN(Cc3ccc(Cl)c(Cl)c3)CCO2)cc1` (centres unmarked) [Example 63, 2-(4-acetylphenyl)-N-{[4-(3,4-dichlorobenzyl)morpholin-2-yl]methyl}acetamide] the “pIC50 value” value was “greater than 5.0”. `CC(C)C(=O)c1ccc(CC(=O)NCC2CN(Cc3ccc(Cl)c(Cl)c3)CCO2)cc1.O=C(O)C(F)(F)F` (centres unmarked) [Example 64, N-{[4-(3,4-dichlorobenzyl)morpholin-2-yl]methyl}-2-(4-isobutyrylphenyl)acetamide trifluoroacetate] was tested, and the “pIC50 value” value was “greater than 5.0”. With `COC(=O)c1ccc(CC(=O)NCC2CN(Cc3ccc(Cl)c(Cl)c3)CCO2)cc1.O=C(O)C(F)(F)F` (centres unmarked) [Example 65, methyl 4-[2-({[4-(3,4-dichlorobenzyl)morpholin-2-yl]methyl}amino)-2-oxoethyl]benzoate trifluoroacetate] the “pIC50 value” value was “greater than 5.0”. For `COC(=O)c1ccc(CC(=O)NCC2CN(Cc3ccc(Cl)c(Cl)c3)CCO2)cc1` (centres unmarked) [Example 66, methyl 4-[2-({[4-(3,4-dichlorobenzyl)morpholin-2-yl]methyl}amino)-2-oxoethyl]benzoate], the “pIC50 value” value was “greater than 5.0”. In the case of `N#Cc1ccc(CC(=O)NCC2CN(Cc3ccc(Cl)c(Cl)c3)CCO2)cc1.O=C(O)C(F)(F)F` (centres unmarked) [Example 67, 2-(4-cyanophenyl)-N-{[4-(3,4-dichlorobenzyl)morpholin-2-yl]methyl}acetamide trifluoroacetate], the “pIC50 value” value is reported as “greater than 5.0”. With `N#Cc1ccc(CC(=O)NCC2CN(Cc3ccc(Cl)c(Cl)c3)CCO2)cc1` (centres unmarked) [Example 68, 2-(4-cyanophenyl)-N-{[4-(3,4-dichlorobenzyl)morpholin-2-yl]methyl}acetamide] the “pIC50 value” value was “greater than 5.0”. For `C[C@@H]1CO[C@@H](CNC(=O)Cc2ccccc2)CN1Cc1ccc(Cl)c(Cl)c1` [Example 69, N-{[(2S,5R)-4-(3,4-dichlorobenzyl)-5-methylmorpholin-2-yl]methyl}-2-phenylacetamide], the “pIC50 value” value was “greater than 5.0”. With `C[C@@H]1CO[C@@H](CNC(=O)Cc2ccc(Cl)cc2)CN1Cc1ccc(Cl)c(Cl)c1` [Example 70, 2-(4-chlorophenyl)-N-{[(2S,5R)-4-(3,4-dichlorobenzyl)-5-methylmorpholin-2-yl]methyl}acetamide] the “pIC50 value” value was “greater than 5.0”. With `O=C(Cc1ccc(O)c(F)c1)NCC1CN(Cc2ccc(Cl)c(Cl)c2)CCO1.O=C(O)C(F)(F)F` (centres unmarked) [Example 71, N-{[4-(3,4-dichlorobenzyl)morpholin-2-yl]methyl}-2-(3-fluoro-4-hydroxyphenyl)acetamide trifluoroacetate] the “pIC50 value” value was “greater than 5.0”. In the case of `O=C(Cc1ccco1)NC[C@H]1CN(Cc2ccc(Cl)c(Cl)c2)CCO1` [Example 72, N-{[(2S)-4-(3,4-dichlorobenzyl)morpholin-2-yl]methyl}-2-(2-furyl)acetamide], the “pIC50 value” value is reported as “greater than 5.0”. With `CN1CCN(C(=O)c2ccc(CC(=O)NCC3CN(Cc4ccc(Cl)c(Cl)c4)CCO3)cc2)CC1` (centres unmarked) [Example 73, N-{[4-(3,4-dichlorobenzyl)morpholin-2-yl]methyl}-2-{4-[(4-methylpiperazin-1-yl)carbonyl]phenyl}acetamide] the “pIC50 value” value was “greater than 5.0”. For `CN(C)CCNC(=O)c1ccc(CC(=O)NCC2CN(Cc3ccc(Cl)c(Cl)c3)CCO2)cc1` (centres unmarked) [Example 74, 4-[2-({[4-(3,4-dichlorobenzyl)morpholin-2-yl]methyl}amino)-2-oxoethyl]-N-[2-(dimethylamino)ethyl]benzamide], the “pIC50 value” value was “greater than 5.0”. `CN(C)C(=O)c1ccc(CC(=O)NCC2CN(Cc3ccc(Cl)c(Cl)c3)CCO2)cc1` (centres unmarked) [Example 75, 4-[2-({[4-(3,4-dichlorobenzyl)morpholin-2-yl]methyl}amino)-2-oxoethyl]-N,N-dimethylbenzamide] was tested, and the “pIC50 value” value was “greater than 5.0”. For `CCNC(=O)c1ccc(CC(=O)NCC2CN(Cc3ccc(Cl)c(Cl)c3)CCO2)cc1` (centres unmarked) [Example 76, 4-[2-({[4-(3,4-dichlorobenzyl)morpholin-2-yl]methyl}amino)-2-oxoethyl]-N-ethylbenzamide], the “pIC50 value” value was “greater than 5.0”. `O=C(Cc1ccc(C(=O)NCCO)cc1)NCC1CN(Cc2ccc(Cl)c(Cl)c2)CCO1` (centres unmarked) [Example 77, 4-[2-({[4-(3,4-dichlorobenzyl)morpholin-2-yl]methyl}amino)-2-oxoethyl]-N-(2-hydroxyethyl)benzamide] was tested, and the “pIC50 value” value was “greater than 5.0”. `O=C(Cc1ccc(C(=O)N2CCOCC2)cc1)NCC1CN(Cc2ccc(Cl)c(Cl)c2)CCO1` (centres unmarked) [Example 78, N-{[4-(3,4-dichlorobenzyl)morpholin-2-yl]methyl}-2-[4-(morpholin-4-ylcarbonyl)phenyl]acetamide] was tested, and the “pIC50 value” value was “greater than 5.0”. In the case of `CN(C)S(=O)(=O)c1cccc(CC(=O)NC[C@H]2CN(Cc3ccc(Cl)c(Cl)c3)CCO2)c1` [Example 79, N-{[(2S)-4-(3,4-dichlorobenzyl)morpholin-2-yl]methyl}-2-{3-[(dimethylamino)sulfonyl]phenyl}acetamide], the “pIC50 value” value is reported as “greater than 5.0”. `CN(C)S(=O)(=O)c1ccc(CC(=O)NC[C@@H]2CN(Cc3ccc(Cl)c(Cl)c3)CCO2)cc1` [Example 80, N-{[(2R)-4-(3,4-dichlorobenzyl)morpholin-2-yl]methyl}-2-{4-[(dimethylamino)sulfonyl]phenyl}acetamide] was tested, and the “pIC50 value” value was “greater than 5.0”. With `CN(C)S(=O)(=O)c1ccc(CC(=O)NC[C@H]2CN(Cc3ccc(Cl)c(Cl)c3)CCO2)cc1` [Example 81, N-{[(2S)-4-(3,4-dichlorobenzyl)morpholin-2-yl]methyl}-2-{4-[(dimethylamino)sulfonyl]phenyl}acetamide] the “pIC50 value” value was “greater than 5.0”. For `CNC(=O)c1ccc(CC(=O)NCC2CN(Cc3ccc(Cl)c(Cl)c3)CCO2)cc1` (centres unmarked) [Example 82, 4-[2-({[4-(3,4-dichlorobenzyl)morpholin-2-yl]methyl}amino)-2-oxoethyl]-N-methylbenzamide], the “pIC50 value” value was “greater than 5.0”. `CC(C)NC(=O)c1ccc(CC(=O)NCC2CN(Cc3ccc(Cl)c(Cl)c3)CCO2)cc1` (centres unmarked) [Example 83, 4-[2-({[4-(3,4-dichlorobenzyl)morpholin-2-yl]methyl}amino)-2-oxoethyl]-N-isopropylbenzamide] was tested, and the “pIC50 value” value was “greater than 5.0”. With `O=C(Cc1ccc(C(=O)NC2CC2)cc1)NCC1CN(Cc2ccc(Cl)c(Cl)c2)CCO1` (centres unmarked) [Example 84, N-cyclopropyl-4-[2-({[4-(3,4-dichlorobenzyl)morpholin-2-yl]methyl}amino)-2-oxoethyl]benzamide] the “pIC50 value” value was “greater than 5.0”. In the case of `COCCNC(=O)c1ccc(CC(=O)NCC2CN(Cc3ccc(Cl)c(Cl)c3)CCO2)cc1` (centres unmarked) [Example 85, 4-[2-({[4-(3,4-dichlorobenzyl)morpholin-2-yl]methyl}amino)-2-oxoethyl]-N-(2-methoxyethyl)benzamide], the “pIC50 value” value is reported as “greater than 5.0”. In the case of `O=C(Cn1nnc(-c2ccccc2)n1)NCC1CN(Cc2ccc(Cl)c(Cl)c2)CCO1` (centres unmarked) [Example 86, N-{[4-(3,4-dichlorobenzyl)morpholin-2-yl]methyl}-2-(5-phenyl-2H-tetraazol-2-yl)acetamide], the “pIC50 value” value is reported as “greater than 5.0”. In the case of `O=C(Cn1cnc(Br)c1)NCC1CN(Cc2ccc(Cl)c(Cl)c2)CCO1` (centres unmarked) [Example 87, 2-(4-bromo-1H-imidazol-1-yl)-N-{[4-(3,4-dichlorobenzyl)morpholin-2-yl]methyl}acetamide], the “pIC50 value” value is reported as “greater than 5.0”.
